Results reported in paper PMC4545792.
Results are given in words; binding and its absence hold for the method and conditions named. In cells and extracts the contact can be indirect. Here binding means that the protein was enriched with, or labelled near, the bait; the list need not be complete. For part of these data: A no says only that the protein was not detected with the bait. Sequences can lack the tags named with a protein.

How the values were obtained:
Assay in all cases: affinity purification with mass spectrometry; FLAG-tagged human bait stably expressed in MEL cells induced 72 h with 1.5% DMSO; isolated mitochondria lysed in 50 mM Tris-HCl pH 7.5, 1 mM EDTA, 150 mM NaCl, 1% Nonidet P-40; anti-FLAG agarose overnight at 4°C, washes with 0.1% Nonidet P-40, elution with FLAG peptide, MudPIT MS; empty vector as control
[1] = biological target: T1, FLAG-FECH (human ferrochelatase, wild type) (human) (UniProt P22830)
T1 sequence: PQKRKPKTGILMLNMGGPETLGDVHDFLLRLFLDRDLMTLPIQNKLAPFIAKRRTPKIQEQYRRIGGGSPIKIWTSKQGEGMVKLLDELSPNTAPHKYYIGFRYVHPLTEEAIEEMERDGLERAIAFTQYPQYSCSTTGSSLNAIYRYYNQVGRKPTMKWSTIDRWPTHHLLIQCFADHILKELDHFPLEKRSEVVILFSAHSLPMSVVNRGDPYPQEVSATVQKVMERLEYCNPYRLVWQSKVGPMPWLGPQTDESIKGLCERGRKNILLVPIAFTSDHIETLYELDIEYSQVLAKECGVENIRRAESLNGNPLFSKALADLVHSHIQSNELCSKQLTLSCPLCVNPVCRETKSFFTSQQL

[2] = biological target: T2, FLAG-PPOX (human protoporphyrinogen oxidase, carboxy terminal FLAG) (human) (UniProt P50336)
T2 sequence: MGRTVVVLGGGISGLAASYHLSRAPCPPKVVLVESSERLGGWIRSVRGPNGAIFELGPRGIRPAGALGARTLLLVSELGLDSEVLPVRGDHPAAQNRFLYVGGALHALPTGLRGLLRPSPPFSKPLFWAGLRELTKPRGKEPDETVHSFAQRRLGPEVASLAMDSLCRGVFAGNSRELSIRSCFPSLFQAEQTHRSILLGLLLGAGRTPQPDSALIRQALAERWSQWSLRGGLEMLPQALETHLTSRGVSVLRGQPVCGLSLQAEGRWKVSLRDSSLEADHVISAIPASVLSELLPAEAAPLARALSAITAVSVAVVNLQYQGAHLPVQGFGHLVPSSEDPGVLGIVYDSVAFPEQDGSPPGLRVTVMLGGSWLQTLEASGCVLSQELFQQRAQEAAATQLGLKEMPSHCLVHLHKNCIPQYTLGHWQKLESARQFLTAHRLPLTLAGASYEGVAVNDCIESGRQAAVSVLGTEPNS

[3] = biological target: T3, FLAG-CPOX (human coproporphyrinogen oxidase, carboxy terminal FLAG) (human) (UniProt P36551)
T3 sequence: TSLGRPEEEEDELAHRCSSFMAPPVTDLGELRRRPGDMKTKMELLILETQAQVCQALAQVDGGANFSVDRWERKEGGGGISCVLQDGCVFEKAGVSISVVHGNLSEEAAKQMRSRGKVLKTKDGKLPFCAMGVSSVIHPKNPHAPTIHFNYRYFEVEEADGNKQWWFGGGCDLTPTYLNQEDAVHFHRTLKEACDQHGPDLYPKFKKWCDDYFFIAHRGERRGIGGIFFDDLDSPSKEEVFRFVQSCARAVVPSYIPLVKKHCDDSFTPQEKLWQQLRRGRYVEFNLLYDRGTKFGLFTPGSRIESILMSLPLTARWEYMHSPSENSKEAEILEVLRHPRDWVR

[4] = biological target: T4, FLAG-FECH M76H variant (human ferrochelatase) (human) (UniProt P22830)
T4 sequence: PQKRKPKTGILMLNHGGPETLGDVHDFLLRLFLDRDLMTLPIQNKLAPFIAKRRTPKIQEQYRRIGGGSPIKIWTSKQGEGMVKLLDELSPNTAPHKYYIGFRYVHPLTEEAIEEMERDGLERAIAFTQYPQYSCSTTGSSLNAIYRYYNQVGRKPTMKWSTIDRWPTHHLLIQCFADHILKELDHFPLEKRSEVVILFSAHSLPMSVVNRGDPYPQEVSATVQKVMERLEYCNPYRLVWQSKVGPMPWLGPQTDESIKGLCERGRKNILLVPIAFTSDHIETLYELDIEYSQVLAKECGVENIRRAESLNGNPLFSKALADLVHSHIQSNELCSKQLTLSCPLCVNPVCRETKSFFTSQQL

[5] = biological target: T5, FLAG-FECH E343K variant (human ferrochelatase) (human) (UniProt P22830)
T5 sequence: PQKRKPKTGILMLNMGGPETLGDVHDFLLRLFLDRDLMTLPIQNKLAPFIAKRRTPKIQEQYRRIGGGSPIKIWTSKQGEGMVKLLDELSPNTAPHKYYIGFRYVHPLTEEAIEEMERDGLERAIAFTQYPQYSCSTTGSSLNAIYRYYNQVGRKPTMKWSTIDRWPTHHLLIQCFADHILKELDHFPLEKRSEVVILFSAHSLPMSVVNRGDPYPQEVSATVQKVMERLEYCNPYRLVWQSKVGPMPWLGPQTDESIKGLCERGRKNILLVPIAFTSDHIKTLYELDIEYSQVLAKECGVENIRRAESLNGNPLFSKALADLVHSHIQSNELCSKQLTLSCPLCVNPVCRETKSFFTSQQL

B1: mouse 5-aminolevulinate synthase 2 (erythroid) (enzyme, UniProt P08680 50-587)
chain: QIHLKATKAGGDSPSWAKSHCPFMLSELQDRKSKIVQRAAPEVQEDVKTFKTDLLSTMDSTTRSHSFPSFQEPEQTEGAVPHLIQNNMTGSQAFGYDQFFRDKIMEKKQDHTYRVFKTVNRWANAYPFAQHFSEASMASKDVSVWCSNDYLGISRHPRVLQAIEETLKNHGAGAGGTRNISGTSKFHVELEQELAELHQKDSALLFSSCFVANDSTLFTLAKLLPGCEIYSDAGNHASMIQGIRNSGAAKFVFRHNDPGHLKKLLEKSDPKTPKIVAFETVHSMDGAICPLEELCDVAHQYGALTFVDEVHAVGLYGARGAGIGERDGIMHKLDIISGTLGKAFGCVGGYIASTRDLVDMVRSYAAGFIFTTSLPPMVLSGALESVRLLKGEEGQALRRAHQRNVKHMRQLLMDRGFPVIPCPSHIIPIRVGNAALNSKICDLLLSKHSIYVQAINYPTVPRGEELLRLAPSPHHSPQMMENFVEKLLLAWTEVGLPLQDVSVAACNFCHRPVHFELMSEWERSYFGNMGPQYVTTYA
binding [1]: binds | binding [2]: binds | binding [3]: no binding | binding [4]: binds | binding [5]: binds

B2: mouse succinyl-CoA synthetase beta subunit (sucla2) (enzyme, UniProt Q9Z2I9 54-463)
chain: SLHEYLSMELLQEAGVSVPKGFVAKSSDEAYAIAKKLGSKDVVIKAQVLAGGRGKGTFTSGLKGGVKIVFSPEEAKAVSSQMIGQKLITKQTGEKGRICNQVLVCERKYPRREYYFAITMERSFQGPVLIGSAQGGVNIEDVAAENPEAIVKEPIDIVEGIKKEQAVTLAQKMGFPSNIVDSAAENMIKLYNLFLKYDATMVEINPMVEDSDGKVLCMDAKINFDSNSAYRQKKIFDLQDWSQEDERDKEAANADINYIGLDGSIGCLVNGAGLAMATMDIIKLHGGTPANFLDVGGGATVQQVTEAFKLITSDKKVQAILVNIFGGIMRCDVIAQGIVMAVKDLEIRIPVVVRLQGTRVDDAKALIADSGLKILACDDLDEAAKMVVKLSEIVTLAKEAHVDVKFQLPI
binding [1]: binds | binding [2]: binds | binding [3]: no binding | binding [4]: binds | binding [5]: binds

B3: mouse abcb10 (protein, UniProt Q9JI39 83-715)
chain: AGPRAAHPLFARLQGAAATGVRDLGNDSQRRPAATGRSEVWKLLGLVRPERGRLSAAVGFLAVSSVITMSAPFFLGRIIDVIYTNPSEGYGDSLTRLCAVLTCVFLCGAAANGIRVYLMQSSGQSIVNRLRTSLFSSILRQEVAFFDKTRTGELINRLSSDTALLGRSVTENLSDGLRAGAQASVGVGMMFFVSPSLATFVLSVVPPISVLAVIYGRYLRKLSKATQDSLAEATQLAEERIGNIRTIRAFGKEMTEVEKYTGRVDQLLQLAQKEALARAGFFGAAGLSGNLIVLSVLYKGGLLMGSAHMTVGELSSFLMYAFWVGLSIGGLSSFYSELMKGLGAGGRLWELLERQPRLPFNEGMVLDEKTFQGALEFRNVHFTYPARPEVSVFQDFSLSIPSGSVTALVGPSGSGKSTVVSLLLRLYDPNSGTVSLDGHDIRQLNPVWLRSKIGTVSQEPVLFSCSVAENIAYGADNLSSVTAQQVERAAEVANAAEFIRSFPQGFDTVVGEKGILLSGGQKQRIAIARALLKNPKILLLDEATSALDAENEHLVQEALDRLMEGRTVLIIAHRLSTIKNANFVAVLDHGKICEHGTHEELLLKPNGLYRKLMNKQSFLSYNGAEQFLEPARA
binding [1]: binds | binding [2]: binds | binding [3]: no binding | binding [4]: binds | binding [5]: binds

B4: mouse ferrochelatase (enzyme, UniProt P22315 54-422)
chain: TTKPQAQPERRKPKTGILMLNMGGPETLGEVQDFLQRLFLDRDLMTLPIQNKLAPFIAKRRTPKIQEQYRRIGGGSPIKMWTSKQGEGMVKLLDELSPATAPHKYYIGFRYVHPLTEEAIEEMERDGLERAIAFTQYPQYSCSTTGSSLNAIYRYYNEVGQKPTMKWSTIDRWPTHPLLIQCFADHILKELNHFPEEKRSEVVILFSAHSLPMSVVNRGDPYPQEVGATVHKVMEKLGYPNPYRLVWQSKVGPVPWLGPQTDEAIKGLCERGRKNILLVPIAFTSDHIETLYELDIEYSQVLAQKCGAENIRRAESLNGNPLFSKALADLVHSHIQSNKLCSTQLSLNCPLCVNPVCRKTKSFFTSQQL
binding [1]: binds | binding [2]: binds | binding [3]: no binding | binding [4]: binds | binding [5]: binds

B5: mouse coproporphyrinogen oxidase (enzyme, UniProt P36552 99-443)
chain: SPSPGRREEDGDELARRCSTFMSSPVTELRELRRRPEDMKTKMELMIMETQAQVCRALAQVDGVADFTVDRWERKEGGGGITCVLQDGRVFEKAGVSISVVHGNLSEEAANQMRGRGKTLKTKDSKLPFTAMGVSSVIHPKNPYAPTMHFNYRYFEVEEADGNTHWWFGGGCDLTPTYLNQEDAVHFHRTLKEACDQHGPDIYPKFKKWCDDYFFIVHRGERRGIGGIFFDDLDSPSKEEAFRFVKTCAEAVVPSYVPIVKKHCDDSYTPRDKLWQQLRRGRYVEFNLLYDRGTKFGLFTPGSRIESILMSLPLTARWEYMHSPPENSKEAEILEVLRHPKDWVH
binding [1]: no binding | binding [3]: binds | binding [4]: no binding | binding [5]: no binding
